Test results as given in patent US11352315B2, “Compositions and methods comprising a triaryl polyamine” (Curza Global, LLC, priority 2017, dated 2022).
Some of these results come from one statement about several compounds together.

Tested on: A. baumannii
Test: In vivo efficacy, porcine excision wound model (Example 6)
Design: species or system Acinetobacter baumannii
Conditions: Pig 2 (topical treatments only)

**Q.** How did the “Day on which wounds had taken a shift toward healing” value turn out when `CCC(CC)CNCCCNCCCNCc1ccc(-c2cc(-c3ccc(CNCCCNCCCNCC(CC)CC)cc3)cc(C(C)(C)C)c2)cc1` [CZ-1-179, N^1,N^1′-((5′-(tert-butyl)-[1,1′:3′,1″-terphenyl]-4,4″-diyl)bis(methylene))bis(N^3-(3-((2-ethylbutyl)amino)propyl)propane-1,3-diamine)] was run?
**A.** The value was ≤ 8 days.
